These results are taken from US20100239587A1.

Amino acid sequences for entries named in this document (tags omitted). Residues count along the entry.
UniProt P21860, residues 20-643: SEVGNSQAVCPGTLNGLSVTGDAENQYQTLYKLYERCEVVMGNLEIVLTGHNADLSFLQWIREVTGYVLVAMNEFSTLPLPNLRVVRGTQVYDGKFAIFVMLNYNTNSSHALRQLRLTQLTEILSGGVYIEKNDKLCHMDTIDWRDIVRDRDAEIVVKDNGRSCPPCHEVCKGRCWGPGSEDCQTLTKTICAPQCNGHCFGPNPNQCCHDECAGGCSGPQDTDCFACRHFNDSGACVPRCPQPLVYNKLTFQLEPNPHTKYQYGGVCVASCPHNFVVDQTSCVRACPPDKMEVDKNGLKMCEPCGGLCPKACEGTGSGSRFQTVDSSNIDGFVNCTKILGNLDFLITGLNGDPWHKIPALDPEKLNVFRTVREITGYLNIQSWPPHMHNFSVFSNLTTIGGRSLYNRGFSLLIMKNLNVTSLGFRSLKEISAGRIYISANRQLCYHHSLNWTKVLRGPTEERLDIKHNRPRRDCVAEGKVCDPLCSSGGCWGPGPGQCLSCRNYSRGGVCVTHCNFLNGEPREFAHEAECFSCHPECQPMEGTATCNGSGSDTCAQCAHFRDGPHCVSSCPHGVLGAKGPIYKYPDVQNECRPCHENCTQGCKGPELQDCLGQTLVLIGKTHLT

No constants are given. Whether binding was seen depends on the method and setting. Some results given as binding are weak or reduced against the parent protein; the word gives no strength.

For one assay, the target named is erbB2-SbdIV (GST fusion protein of subdomain IV of erbB2) (UniProt P04626). Nature of the assay: SPR, erbB2-SbdIV immobilized, peptide injected. For orientation: In SPR one partner is held on a chip, and binding of the other changes the refractive index at the surface.
In the case of YCLVWKYADAGCY (cyclized by disulfide bond between the two cysteines (air oxidation)) [B1-S22-ALG], the binding result is on record as “binds”.

On to YCFPDEEGACY (cyclized by disulfide bond between the two cysteines (air oxidation)) [B2-S22-AFA], for which the binding entry is recorded as “binds”.

Turning to YCPIYKYPDVQCY (cyclized by disulfide bond between the two cysteines (air oxidation)) [B3-S22-APQ], the binding entry is “binds”.

For YCFIFKYADPDCY (cyclized by disulfide bond between the two cysteines (air oxidation)) [B4-S22-AFD], the binding result is “binds”.

Another assay deals with ErbB3 extracellular domain (recombinant, soluble) (UniProt P21860). Nature of the assay: SPR, receptor immobilized, peptide injected.
In the case of YCLVWKYADAGCY (cyclized by disulfide bond between the two cysteines (air oxidation)) [B1-S22-ALG], the binding result is on record as “binds”.

Take YCPIWKFPDEECY (cyclized by disulfide bond between the two cysteines (air oxidation)) [B2-S22-APE]: the binding entry is recorded as “binds”.

YCFPDEEGACY (cyclized by disulfide bond between the two cysteines (air oxidation)) [B2-S22-AFA]: the binding result is given as “binds”.

On to YCPIYKYPDVQCY (cyclized by disulfide bond between the two cysteines (air oxidation)) [B3-S22-APQ], for which the binding result is given as “binds”.

For the molecule YCFIFKYADPDCY (cyclized by disulfide bond between the two cysteines (air oxidation)) [B4-S22-AFD], the binding result was “binds”.

The next assay deals with ErbB1 extracellular domain (recombinant, soluble) (UniProt P00533). Briefly: SPR, receptor immobilized, peptide injected.
Turning to YCLVWKYADAGCY (cyclized by disulfide bond between the two cysteines (air oxidation)) [B1-S22-ALG], the binding result was “binds”.

Regarding YCPIWKFPDEECY (cyclized by disulfide bond between the two cysteines (air oxidation)) [B2-S22-APE], the binding result is recorded as “binds”.

On to YCFPDEEGACY (cyclized by disulfide bond between the two cysteines (air oxidation)) [B2-S22-AFA], for which the binding entry is listed as “binds”.

As to YCPIYKYPDVQCY (cyclized by disulfide bond between the two cysteines (air oxidation)) [B3-S22-APQ], the binding entry is on record as “binds”.

For YCFIFKYADPDCY (cyclized by disulfide bond between the two cysteines (air oxidation)) [B4-S22-AFD], the binding entry is recorded as “binds”.

In a further assay the target is ErbB2 extracellular domain (recombinant) (UniProt P04626). Briefly: SPR, receptor immobilized, peptide injected.
With YCLVWKYADAGCY (cyclized by disulfide bond between the two cysteines (air oxidation)) [B1-S22-ALG], the binding result is “binds”.

For the molecule YCPIWKFPDEECY (cyclized by disulfide bond between the two cysteines (air oxidation)) [B2-S22-APE], the binding result is given as “binds”.

In the case of YCFPDEEGACY (cyclized by disulfide bond between the two cysteines (air oxidation)) [B2-S22-AFA], the binding result was “binds”.

Turning to YCPIYKYPDVQCY (cyclized by disulfide bond between the two cysteines (air oxidation)) [B3-S22-APQ], the binding result is reported as “binds”.

With YCFIFKYADPDCY (cyclized by disulfide bond between the two cysteines (air oxidation)) [B4-S22-AFD], the binding entry is reported as “binds”.
